From PubChem BioAssay AID1259415 (National Center for Advancing Translational Sciences (NCATS), 2018)
Hit rate of the full screen: of about 410,000 compounds, about 18,000 (4.4%) were called active. The inconclusive results got no clear call from the source; some entries with a clear call stand among them for comparison. Rule as the data show it: active = activity change below about -60%; inconclusive = no clear call, values can overlap the other calls; inactive = above about -39%.

Test: qHTS Assay for inhibitors of the human cytomegalovirus (HCMV)
Conditions: HFF cells, HCMV-luciferase reporter, 72 h; at 57.5 µM; hits give low values
Summary of the method: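 Cell-based, HFFs, 1000 cells/well, 16 h 37C; cpds in DMSO + HCMV-luc, MOI 1 PFU/cell; 72 h 37C; OneGlo luminescence after 5 min RT; norm. to buffer vs Salinomycin 10uM.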
% is scaled to controls: 0 for no effect and ±100 for the full control effect.

| Compound | activity change, negative = inhibition |
| --- | --- |
| CCn1c2c(c(=O)n3ncc(C(=O)Nc4ccc(F)c(Cl)c4)c13)CN(Cc1ccc(OC)cc1)CC2 | inactive: 24.9% |
| O=C1[C@@H]2Cc3c([nH]c4ccccc34)CN2C(=O)CN1CCCO | inconclusive: -42.4% |
| OC(c1cccc(Cl)c1)c1nc(-c2ccc(Cl)cc2)cs1 (stereo not given) | inconclusive: -54.5% |
| FC(F)(F)c1nc2ccccc2[nH]1 | inactive: 14.2% |
| CCOC(=O)c1cc(CC)sc1NC(=O)CSc1nc2ccccc2c(=O)n1Cc1ccco1 | inactive: -14.9% |
| C(=Nn1cnnc1)c1ccc2c(c1)CCC2 | inconclusive: -44% |
| Cn1cc([N+](=O)[O-])c(C(=O)NCc2cc3cc(Cl)ccc3[nH]2)n1 | inconclusive: -54.9% |
| O=C1C(n2ccc3ccccc32)c2cc(OC(F)(F)F)ccc2N1Cc1ccc(C(F)(F)F)cc1 (stereo not given) | active: -88.8% |
| Cc1cc(=O)[nH]c(SCC(=O)N2CCN(C(=O)c3ccco3)CC2)n1 | inconclusive: -41% |
| COc1cccc2cc(/C(=N/O)c3ccccc3)oc12 | inactive: -21.4% |
| CCN(CC)C(=O)C1CCN(C(=O)c2cnn(-c3ccccc3)c2-n2cccc2)CC1 | inactive: 15.8% |
| COCCCn1c(SCC(=O)N2CCCC(C)C2)nnc1-c1ccco1 (stereo not given) | inactive: 17.7% |
| O=c1cc(CN(Cc2ccccc2)Cc2ccccc2)c2ccccc2o1 | inactive: -8.01% |
| COc1ccc(N2CCN(C(=O)c3ccc(N(C)S(=O)(=O)c4ccc(C)cc4)cc3)CC2)cc1 | inconclusive: -49.4% |
| COC(=O)c1c(-c2cccs2)csc1NC(=O)COc1ccc(C(C)C)cc1 | inactive: -33.5% |
| O=C(Nc1ccc(Cl)cc1C(F)(F)F)c1cc(S(=O)(=O)NCc2ccccc2)ccc1F | inconclusive: -43.2% |
| CN(C)c1ccc2nc3ccc(=O)cc-3sc2c1 | active: -78% |
| CCOC(=O)/C=c1\s/c(=C\c2ccc3cc(OC)ccc3c2)c(=O)n1CC(=O)NCC1CCCO1 (stereo not given) | inconclusive: -50.1% |
| COc1cc(/C=N/NC(=O)c2cccc(NC(=O)c3ccccc3Cl)c2)ccc1O | inconclusive: -49% |
| C[C@H](NC(=O)N1CCC(Cc2ccccc2)CC1)C(=O)O | inconclusive: -49.5% |
| Cc1ccc(NC(=O)C2CCN(S(=O)(=O)c3c(C)noc3C)CC2)cc1C | inconclusive: -41.3% |
| COc1ccc(C(=O)CSc2nnc(-c3ccoc3C)n2CC2CCCO2)cc1 (stereo not given) | inconclusive: -40.2% |

| Compound | activity change, negative = inhibition |
| --- | --- |
| CCc1ccc(Nc2cc(C(=O)NCCCN3CCOCC3)c3ccccc3n2)cc1 | inconclusive: -53% |
| CC(=O)c1ccc(N2CCN(C(=O)/C=C/c3ccc4ccccc4n3)CC2)cc1 | inconclusive: -50.7% |
| CCCCC1(Cc2ccc([N+](=O)[O-])cc2)C(=O)N(c2ccccc2)N(c2ccccc2)C1=O | active: -97.7% |
| CCOc1ccc(NC(=O)Nc2nc3ccc(S(C)(=O)=O)cc3s2)cc1 | inactive: -15.5% |
| CC1CCCCC1NC(=O)C1CCC(CNS(=O)(=O)c2ccc(F)cc2)CC1 (stereo not given) | inconclusive: -44.3% |
| C/C(=N/NS(=O)(=O)c1cc(C)ccc1C)c1c[nH]c2ccccc12 | inconclusive: -40.4% |
| Cn1nc(C(=O)Nc2cccc(C(F)(F)F)c2)c2c1-c1ccccc1S(=O)(=O)C2 | inactive: 7.72% |
| Clc1ccc(-c2nnc(-c3cccc4ccccc34)o2)cc1Cl | inconclusive: -56% |
| COc1ccccc1NC(=O)Nc1ccc(F)c(F)c1 | active: -102% |
| Cc1c(N/N=C(\C#N)C(=O)c2ccc(Cl)cc2)c(=O)n(-c2ccccc2)n1C | active: -100% |
| CCOC(=O)c1c(NC(=O)CSc2nc3cc(Cl)ccc3c(=O)n2Cc2ccco2)sc(C(=O)N(C)C)c1C | active: -68% |
| O=C(c1ccc(S(=O)(=O)Nc2ccc(F)cc2)cc1)N1CCN(C(=O)c2ccco2)CC1 | active: -68.7% |
| CN1CCN(C(=O)/C(=C/c2cn(S(=O)(=O)N(C)C)c3ccccc23)NC(=O)c2ccccc2)CC1 | inactive: -37.7% |
| Cc1nnc(SCC(=O)NC2CCCCCC2)n1C | inactive: -7.17% |
| CCOC(=O)N1CCC(NC(=O)CSCc2nc(-c3ccc(C)cc3)oc2C)CC1 | active: -63.2% |
| Cc1cccc(-c2ncc(CN3CCCC(CO)(Cc4cccc(Cl)c4)C3)cn2)c1 (stereo not given) | inconclusive: -46.7% |
| CC1Cc2cc(S(=O)(=O)CCC(=O)NC3CCCCC3)ccc2N1C(=O)C1CC1 (stereo not given) | inconclusive: -40.1% |
| CCOc1cccc(/C=N/NC(=S)Nc2cc(S(=O)(=O)N3CCOCC3)ccc2N2CCOCC2)c1O | active: -79.4% |
| CCOc1ccc(C2C(C#N)=C(N)Oc3cc(C)n(CCN(C)C)c(=O)c32)cc1OCC (stereo not given) | inactive: -0.72% |
| COc1cccc(/C=C/C(=O)OCC(=O)c2cc(C)n(CC3CCCO3)c2C)c1OC (stereo not given) | inconclusive: -45.7% |
| O=[N+]([O-])c1cccc(OCc2cn3cccnc3n2)c1 | inactive: -14% |
| Cc1ccc(-c2nn(-c3ccccc3)cc2CN(C)C(=O)CCC(=O)O)cc1C | inconclusive: -45.8% |

| Compound | activity change, negative = inhibition |
| --- | --- |
| OC(c1cc(-c2ccc(C(F)(F)F)cc2)nc(C(F)(F)F)c1)C1CCCCN1 (stereo not given) | active: -102% |
| Cc1nn(-c2cccc(Cl)c2)c(Cl)c1/C=N/NC(=O)c1cccs1 | inconclusive: -51% |
| Cc1noc(/C=C/N(C)C)c1S(=O)(=O)N1CCCC(C(=O)NCc2ccccc2Cl)C1 (stereo not given) | active: -97.9% |
| CCOC(=O)c1[nH]c(C)c(/C(O)=C2\C(=O)C(=O)N(CCN3CCOCC3)C2c2ccco2)c1C (stereo not given) | inconclusive: -52.7% |
| O=C(C1CCCO1)N1CCN(C(=S)Nc2ccc(Br)cc2)CC1 (stereo not given) | inconclusive: -49% |
| COc1ccccc1-n1c(CNC(=O)c2ccco2)n[nH]c1=S | inactive: 7.7% |
| CCN(CC(=O)NCc1cccs1)S(=O)(=O)c1cccc(Br)c1 | inconclusive: -57.6% |
| COc1ccnc(Oc2ccc(F)cc2)c1C#N | inconclusive: -55.6% |
| Cc1cc(N2C(=O)C(O)=C(C(=O)c3ccc(C)o3)C2c2cccc(Cl)c2)no1 (stereo not given) | inconclusive: -49.4% |
| CCOC(=O)C1(CCCc2ccccc2)CCN(Cc2nccn2CC)CC1 | inconclusive: -56.2% |
| COc1ccccc1NC(=O)C1(C)Cc2ccccc2C(=O)O1 (stereo not given) | inconclusive: -50.2% |
| Cc1cc(C)c2oc(C(=O)Nc3nc4ccc(Cl)cc4s3)cc(=O)c2c1 | inactive: 7.95% |
| Cc1ccccc1CC1(CO)CCCN(Cc2c(C)nn(C)c2Cl)C1 (stereo not given) | inconclusive: -45.3% |
| COc1cc2nc(NC(=O)c3ccc(S(=O)(=O)N4CCCC4)cc3)sc2cc1OC | active: -62.9% |
| CCC1CCc2sc(C(=O)NCC(c3ccccc3OC)N3CCCC3)cc2C1 (stereo not given) | inconclusive: -59.1% |
| Fc1ccc(NC(=S)N2CCN(c3ccccn3)CC2)cc1Cl | inactive: 17.3% |
| COc1ccc(-c2coc3c(CN4CCCCC4C)c(O)ccc3c2=O)cc1 (stereo not given) | inconclusive: -53.8% |
| C/C(=N\NC(=O)c1ccoc1C)c1ccccc1O | active: -91.4% |
| Cc1cc(C(=O)NN=C2CCCCCC2)c(C)o1 | inactive: -11.7% |
| CCN(CC1CCCO1)C(=O)c1cc(COc2ccccc2SC)on1 (stereo not given) | inactive: 41.1% |
| Cc1cccc(Cn2nnc3c(=O)[nH]c(C4CCCN(C(=O)c5ccc(C(C)(C)C)cc5)C4)nc32)c1 (stereo not given) | active: -69.6% |
| COc1ccc(N(CC(=O)N/N=C/c2ccc(F)cc2)S(=O)(=O)c2ccccc2)cc1 | active: -68.7% |

3 structures already listed, ordered by SMILES length, largest number first:

| Compound | activity change, negative = inhibition |
| --- | --- |
| Cc1noc(/C=C/N(C)C)c1S(=O)(=O)N1CCCC(C(=O)NCc2ccccc2Cl)C1 (stereo not given) | active: -97.9% |
| COc1cc2nc(NC(=O)c3ccc(S(=O)(=O)N4CCCC4)cc3)sc2cc1OC | active: -62.9% |
| CCN(CC1CCCO1)C(=O)c1cc(COc2ccccc2SC)on1 (stereo not given) | inactive: 41.1% |

More records follow:

| Compound | activity change, negative = inhibition |
| --- | --- |
| Clc1ccc(OCCn2c(-c3ccco3)nc3ccccc32)cc1 | active: -74.6% |
| COc1ccc2c(CNC3CCC(C)CC3)c(C(=O)O)n(Cc3ccccc3)c2c1 (stereo not given) | inactive: 11.9% |
| Cc1cccc(Cn2nnc3c2C(=O)c2ccccc2C3=O)c1 | active: -100% |
| COc1ccc(-c2cn[nH]c2-c2ccc(OCc3ccccc3F)cc2O)cc1OC | active: -61% |
| COc1ccc(-n2c(Cc3ccccc3)nnc2SCc2ccc([N+](=O)[O-])cc2)cc1 | inconclusive: -41.7% |
| COc1ccc(C(=O)c2cnc(C(C)C)n2C)cc1 | inactive: -6.26% |
| CCc1nnc(NC(=O)c2ccc(Cl)nc2)s1 | inactive: 92% |
| CC[C@H](C)C(=O)O[C@H]1C[C@@H](C)C=C2C=C[C@H](C)[C@H](CC[C@@H]3C[C@@H](O)CC(=O)O3)[C@H]21 | inconclusive: -43.1% |
| O=[N+]([O-])c1ccc(NN=Cc2ccc(O)cc2O)nc1 | active: -97.6% |
| O=C(CN1CCCCC1)NCC1(c2ccccc2)CCCC1 | inconclusive: -53.1% |
| COc1ccc(C(=O)c2c(C)oc3ccc(O)cc23)cc1 | inconclusive: -46.3% |
| COc1ccc(C(=O)NCC(=O)N/N=C/c2cn[nH]c2-c2ccccc2)cc1 | inconclusive: -43.1% |
| Cc1cccc(C)c1OC(=O)CCN1C(=O)C2C3C=CC(C4CC34)C2C1=O (stereo not given) | inconclusive: -55.1% |
| C=CC[n+]1c(-c2ccc(OC)cc2)csc1NNC(=O)Nc1ccccc1 | inconclusive: -59.9% |
| O=C(N/N=C\c1cc([N+](=O)[O-])ccc1N1CCCC1)c1ccccn1 | inconclusive: -48.2% |
| Cc1c(/C=N/NC(=O)C2(O)c3ccccc3-c3ccccc32)cnn1C | inconclusive: -50.3% |
| Cc1cccc(-n2c(SCc3ccc([N+](=O)[O-])cc3)nnc2-c2c[nH]c3ccccc23)c1 | inconclusive: -47.8% |
| Cc1ccc(S(=O)(=O)N(C)c2ccc(C(=O)N3CCN(Cc4ccc5c(c4)OCO5)CC3)cc2)cc1 | active: -95% |
| CCCN1C(C(=O)c2ccccc2)=C(OC(=O)C(C)(C)C)c2ccccc2S1(=O)=O | active: -89.5% |
